Measurements: paper PMC5880407
These are yes or no findings as the source states them, for the method shown. Binding seen in cells or lysates may run through a third protein. Some entries that bind do so weakly or less than the wild type.

Amino acid sequences for entries named in this document (tags omitted). A change or cut given only in a name is not applied to a line headed by its entry.
UniProt Q03018: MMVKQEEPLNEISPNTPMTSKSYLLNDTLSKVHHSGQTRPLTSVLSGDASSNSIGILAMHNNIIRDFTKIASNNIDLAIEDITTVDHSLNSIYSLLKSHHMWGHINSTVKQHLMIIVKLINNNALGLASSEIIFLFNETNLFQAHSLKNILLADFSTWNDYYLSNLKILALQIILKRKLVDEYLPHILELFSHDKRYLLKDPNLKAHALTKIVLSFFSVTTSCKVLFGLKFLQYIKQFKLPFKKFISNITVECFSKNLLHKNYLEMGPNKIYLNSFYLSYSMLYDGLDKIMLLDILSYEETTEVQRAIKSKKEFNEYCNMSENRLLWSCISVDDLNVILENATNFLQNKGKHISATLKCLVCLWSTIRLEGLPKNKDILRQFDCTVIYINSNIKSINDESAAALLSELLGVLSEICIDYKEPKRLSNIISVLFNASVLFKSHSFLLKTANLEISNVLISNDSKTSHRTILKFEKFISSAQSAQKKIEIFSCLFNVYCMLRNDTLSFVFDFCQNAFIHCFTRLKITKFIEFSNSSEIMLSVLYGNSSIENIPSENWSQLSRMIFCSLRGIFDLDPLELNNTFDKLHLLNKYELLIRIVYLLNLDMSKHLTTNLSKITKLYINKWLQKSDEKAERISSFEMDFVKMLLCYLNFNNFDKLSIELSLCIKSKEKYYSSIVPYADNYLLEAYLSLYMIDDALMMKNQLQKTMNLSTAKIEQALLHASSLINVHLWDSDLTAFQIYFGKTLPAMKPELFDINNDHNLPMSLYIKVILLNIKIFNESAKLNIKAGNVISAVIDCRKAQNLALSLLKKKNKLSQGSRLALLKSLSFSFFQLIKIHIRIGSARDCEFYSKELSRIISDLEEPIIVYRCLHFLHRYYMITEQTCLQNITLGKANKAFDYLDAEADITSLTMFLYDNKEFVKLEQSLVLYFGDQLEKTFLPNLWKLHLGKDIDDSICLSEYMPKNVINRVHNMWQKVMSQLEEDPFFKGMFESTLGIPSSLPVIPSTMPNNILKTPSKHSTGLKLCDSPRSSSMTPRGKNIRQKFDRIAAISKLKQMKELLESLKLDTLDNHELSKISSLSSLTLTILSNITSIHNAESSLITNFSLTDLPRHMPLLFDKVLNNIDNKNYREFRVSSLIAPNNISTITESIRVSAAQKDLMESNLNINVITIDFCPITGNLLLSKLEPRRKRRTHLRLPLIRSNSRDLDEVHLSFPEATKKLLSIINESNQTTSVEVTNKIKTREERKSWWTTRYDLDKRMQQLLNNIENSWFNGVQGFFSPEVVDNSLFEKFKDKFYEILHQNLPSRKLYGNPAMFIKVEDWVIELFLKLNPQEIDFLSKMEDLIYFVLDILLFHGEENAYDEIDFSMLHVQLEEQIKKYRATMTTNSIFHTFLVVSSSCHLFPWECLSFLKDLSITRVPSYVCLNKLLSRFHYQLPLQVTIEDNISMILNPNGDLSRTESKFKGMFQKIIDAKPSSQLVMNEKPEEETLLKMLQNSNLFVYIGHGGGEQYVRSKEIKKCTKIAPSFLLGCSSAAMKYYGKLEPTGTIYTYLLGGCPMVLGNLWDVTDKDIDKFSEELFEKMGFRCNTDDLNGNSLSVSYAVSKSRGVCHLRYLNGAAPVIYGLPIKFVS

How the values were obtained:
Assay in all cases: co-IP; anti-FLAG-M2 immunoprecipitation of Esp1-3FLAG (wild type and alanine mutants) from yeast grown at 25°C and arrested with nocodazole; APC lysis buffer (50 mM Hepes-KOH pH 7.8, 700 mM NaCl, 0.25% NP-40); immunoprecipitates blotted with anti-Esp1 and anti-Pds1
[1] = target: Esp1-3FLAG (wild type) (budding yeast) (UniProt Q03018)
[2] = target: esp1-1A-3FLAG (budding yeast) (UniProt Q03018)
[3] = target: esp1-2A+1A-3FLAG (budding yeast) (UniProt Q03018)
[4] = target: esp1-2A+3A+1A-3FLAG (budding yeast) (UniProt Q03018)
[5] = target: esp1-2A+3A-3FLAG (budding yeast) (UniProt Q03018)
[6] = target: esp1-2A-3FLAG (budding yeast) (UniProt Q03018)
[7] = target: esp1-3A+1A-3FLAG (budding yeast) (UniProt Q03018)
[8] = target: esp1-3A-3FLAG (budding yeast) (UniProt Q03018)

binding [1]: binds | binding [2]: binds | binding [3]: binds | binding [4]: binds | binding [5]: binds | binding [6]: binds | binding [7]: binds | binding [8]: binds
B1: Pds1 (Securin) (protein, UniProt P40316 1-373)
chain: MMPANEDKENNIVYTGNESSGINFPQTPAHLLKRSHSNILKPPVRLDQLKRDANSNNGNTLKYIQGGKEVSPTKRLHTHAQQQGRLPLAAKDNNRSKSFIFPETSNQSKDADLPQLQNTLSIRKNDQLRKLSQISRSRSRANHNDLLSNSRKLQKYGSVLGYNALPKMKSLVLKDLADSGKNEESSDDDEGNEDSESKLGKKLQSALLKQDSSDGENELNGGLGLFNEQGGLQQLIKNSTKNEQKTKNDKSDKTDDYDIEIAPQRQEPLPYVPEGYSPFQQDDIEKLKTFNSPYKLDLEDEDDTPDKVDLLPLEQIDEEGEKDETECITRNQEEGAALPLLSKNFKEVAAVPTMELVYSEEGLDPEELEDLVT
